According to patent US10716783B2, “Prolylhydroxylase/ATF4 inhibitors and methods of use for treating neural cell injury or death and conditions resulting therefrom” (CORNELL UNIVERSITY, priority 2013, dated 2020):
Entries after “also recorded” stand apart in the source; their conditions may differ.

What was measured:
[1] = tested on: intracerebral hemorrhage (collagenase into the striatum); experiment: Collagenase-induced ICH in mice; format: in vivo; settings: 30 mg/kg; seven days following ICH; x-ray fluorescence spectroscopy
Method: FIGS. 4A-4N. Adaptoquin delivered post-injury reduces cell death and enhances functional recovery post injury in mice and rats. Adaptoquin's effects in mice are not associated with global shifts of iron out of the brain. FIG. 4A: Experimental design for schedule of delivery of adaptaquin post-ICH. 30 mg/kg was delivered post-injury and then daily for seven days during which behavioral analysis was done. Mice were sacrificed at day 7 for qPCR and Fluoro-jade staining. […] FIG. 4J: Protocol for adaptoquin treatment of rats with ICH. ICH is modeled by autologous blood infusion and not collagenase in these studies. Behavior is tracked by a single pellet reaching task out to 28 days, but the schedule of infusion is similar to what is used in mice-2 hrs post blood infusion and then daily out to seven days. Behavior is monitored before, from 9-11 days and from 25-28 days. […] FIG. 4L: Protocol for evaluating the total concentrations of iron and zinc in brain following ICH in vehicle and adaptoquin treated mice. FIGS. 4M, 4N: Pseudocolored sections of collagenase induced ICH in mice after 7 days. […] These studies are consistent with the notion that adaptoquin works by inhibiting a specific metalloenzyme rather than global movement of metal ions. […] Total iron levels were monitored in brain sections from vehicle- and adaptoquin-treated (30 mg/kg) mice seven days following ICH.

[2] = Total iron content in neurons; format: cell-based; settings: mass spectrometry / inductively coupled plasma optical emission spectroscopy

Structure (SMILES)	Total iron in brain [1]	Total zinc in brain [1]	Total iron in neurons at protective concentrations [2]
Oc1cccnc1NC(c1ccc(Cl)cc1)c1ccc2cccnc2c1O (stereo not drawn) [adaptoquin]	no differences; also recorded: do not change	no differences; also recorded: do not change	
Cc1cc(C2CCCCC2)n(O)c(=O)c1 [cyclopirox]			did not correlate with a significant change in total cellular iron levels; also recorded: not associated with significant (p>0.05) reductions in total iron
